# These are yes or no findings as the source states them, for the method shown. Some entries that bind do so weakly or less than the wild type. Where a sequence is shown, tags or fusion partners need not be part of it.
# The chains behind the UniProt entries cited, without tags or fusion partners. Where a name states a change or a piece, a line headed by the entry shows the natural chain unless it says otherwise.
# UniProt Q96SW2: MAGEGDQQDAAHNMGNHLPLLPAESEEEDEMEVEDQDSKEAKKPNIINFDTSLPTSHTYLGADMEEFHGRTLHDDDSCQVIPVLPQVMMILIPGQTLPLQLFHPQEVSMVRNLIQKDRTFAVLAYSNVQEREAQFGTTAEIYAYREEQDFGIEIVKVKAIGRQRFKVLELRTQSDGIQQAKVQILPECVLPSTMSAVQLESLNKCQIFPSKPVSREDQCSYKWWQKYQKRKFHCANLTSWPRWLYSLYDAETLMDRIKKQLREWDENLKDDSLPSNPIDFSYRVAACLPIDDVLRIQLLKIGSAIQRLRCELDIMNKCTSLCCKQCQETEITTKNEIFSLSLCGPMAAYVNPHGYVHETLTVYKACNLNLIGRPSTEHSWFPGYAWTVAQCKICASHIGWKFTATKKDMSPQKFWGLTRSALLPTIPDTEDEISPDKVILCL
# How the values were obtained:
# [1] = biological target: complex formed between CRBN/DDB1 and lenalidomide (UniProt Q96SW2); test: TR-FRET displacement of Sulfo-Cy5 Aiolos peptide probe from 5 nM CRBN/DDB1 with 10 uM lenalidomide
# [2] = biological target: complex formed between CRBN/DDB1 and iberdomide (UniProt Q96SW2); test: size exclusion chromatography with SDS-PAGE of fractions, in the presence of iberdomide
# [3] = biological target: complex formed between CRBN/DDB1 and iberdomide (UniProt Q96SW2); test: TR-FRET displacement of Sulfo-Cy5 Aiolos peptide probe from 5 nM CRBN/DDB1 with 10 uM iberdomide
# [4] = biological target: complex formed between CRBN/DDB1 and pomalidomide (UniProt Q96SW2); test: TR-FRET displacement of Sulfo-Cy5 Aiolos peptide probe from 5 nM CRBN/DDB1 with 10 uM pomalidomide
# [5] = biological target: complex formed between CRBN/DDB1 and iberdomide (UniProt Q96SW2); test: size exclusion chromatography with SDS-PAGE of fractions: 15 uM CRBN/DDB1, 50 uM iTAG2, 100 uM iberdomide
binding [1],binding [2],binding [3],binding [4],binding [5],Binder
binds,binds,binds,binds,binds,iTAG2 (DCD23mut) (designed binder) PNVLMVHNESHTGEIPLQCEICGFTCEQAGNLLNHIELHSGEIPFKCHLCNYACRRRDAL
binds,,binds,binds,,iTAG1 (DCD23) (designed binder) PNVLMVHKRSHTGERPLQCEICGFTCRQKGNLLRHIKLHSGEKPFKCHLCNYACRRRDAL
